Values quoted from earlier work in US20060281715A1, “Phosphates of secondary alcohols” (priority 2003, published 2006).

Conditions: after administration

CC(C)c1c(C(=O)Nc2ccccc2)c(-c2ccccc2)c(-c2ccc(F)cc2)n1CC[C@@H](O)C[C@@H](O)CC(=O)O [atorvastatin]
time to maximal plasma concentrations: approximately 2 hours
